Results published in paper PMC10203282, “Structural analysis of an endogenous 4-megadalton succinyl-CoA-generating metabolon” (Communications Biology, 2023).
These are yes or no findings as the source states them, for the method shown. In cells and extracts the contact can be indirect. A result given as binding can be weak or reduced; the word gives no strength.

Target: dihydrolipoyl dehydrogenase (E3) (Chaetomium thermophilum (endogenous in the native cell extract))
Experiment: cross-linking; BS3 (1 mM) crosslinking mass spectrometry directly in pooled SEC fractions 3-6 and 7-9 of the native lysate; FDR 2% at the peptide level

B1: C. thermophilum protein E3BPo (KGD4 OGDHc subunit) (protein, UniProt P9WES8 1-135)
chain: MFGTKALRAAQHAVRTPSIKFIGKRTIPAVVDHTPQPHPASPTKTLPASFLSSHATFSVYRDHAQQFGPLRKTITPNAGIGGSPAVALGPVEPPQGVYFDRNDLPERFRRQPLTPDEIEAIETGGGHLLYRGSYL
- binding: binds
